{"sequences": {"note": "Chains of the proteins cited; added tags and fusions are not shown. Lines headed by an entry give the natural chain unless they say otherwise; changes in a name come on top.", "UniProt P20350": "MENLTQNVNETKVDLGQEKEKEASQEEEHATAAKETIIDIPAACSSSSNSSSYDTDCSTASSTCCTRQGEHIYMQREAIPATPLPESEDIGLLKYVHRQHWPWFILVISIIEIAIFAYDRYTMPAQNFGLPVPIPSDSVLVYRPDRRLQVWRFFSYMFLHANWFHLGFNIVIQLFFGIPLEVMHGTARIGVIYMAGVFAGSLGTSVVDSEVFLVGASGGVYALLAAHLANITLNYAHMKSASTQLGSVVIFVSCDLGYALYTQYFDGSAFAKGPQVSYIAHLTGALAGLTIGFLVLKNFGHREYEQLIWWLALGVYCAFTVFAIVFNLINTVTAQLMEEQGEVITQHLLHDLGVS"}, "source": "patent US7279300B2", "about": "“Protozoan rhomboid proteins” (priority 2002, dated 2007)", "molecular_target": "T1, Drosophila Rhomboid-1 (Drosophila melanogaster, UniProt P20350)", "T1 construct": "expressed in transfected cells; host or cells: COS cells", "test": "Cleavage of Pf Ama-1 by Drosophila Rhomboid-1 co-expressed in COS cells (western blot)", "assay_type": "cell-based", "settings": "substrate Pf Ama-1, anti-Ama-1 antibody", "note": "For at least one compound, name, drawing or mass did not settle the structure.", "data": [{"smiles": "CNC(=O)[C@H](Cc1ccccc1)NC(=O)[C@H](CC(C)C)[C@H](CSc1cccs1)C(=O)NO", "note": "[batimastat]", "values": [{"measurement": "sensitivity of Ama-1 cleavage by Drosophila Rhomboid-1 to inhibitor", "value": "not sensitive"}]}]}
